Results from publication PMC10542384.
Results are given in words; binding and its absence hold for the method and conditions named. In cells and extracts the contact can be indirect. Binding calls can cover weak binding; strength is not graded here.

By UniProt entry, the sequences of proteins in these tests, tags left out. Where a name states a change or a piece, a line headed by the entry shows the natural chain unless it says otherwise.
UniProt Q96B23: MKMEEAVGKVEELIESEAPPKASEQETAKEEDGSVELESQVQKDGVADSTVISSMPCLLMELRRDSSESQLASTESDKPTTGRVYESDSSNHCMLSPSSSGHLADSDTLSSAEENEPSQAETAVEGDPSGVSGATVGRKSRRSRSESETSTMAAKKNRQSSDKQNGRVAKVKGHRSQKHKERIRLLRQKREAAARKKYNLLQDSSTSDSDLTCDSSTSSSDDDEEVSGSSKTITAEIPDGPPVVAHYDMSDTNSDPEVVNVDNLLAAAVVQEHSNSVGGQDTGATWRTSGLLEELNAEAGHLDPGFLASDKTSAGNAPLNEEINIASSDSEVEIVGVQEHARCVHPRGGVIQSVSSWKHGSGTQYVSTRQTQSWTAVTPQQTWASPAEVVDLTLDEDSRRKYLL
UniProt P54132: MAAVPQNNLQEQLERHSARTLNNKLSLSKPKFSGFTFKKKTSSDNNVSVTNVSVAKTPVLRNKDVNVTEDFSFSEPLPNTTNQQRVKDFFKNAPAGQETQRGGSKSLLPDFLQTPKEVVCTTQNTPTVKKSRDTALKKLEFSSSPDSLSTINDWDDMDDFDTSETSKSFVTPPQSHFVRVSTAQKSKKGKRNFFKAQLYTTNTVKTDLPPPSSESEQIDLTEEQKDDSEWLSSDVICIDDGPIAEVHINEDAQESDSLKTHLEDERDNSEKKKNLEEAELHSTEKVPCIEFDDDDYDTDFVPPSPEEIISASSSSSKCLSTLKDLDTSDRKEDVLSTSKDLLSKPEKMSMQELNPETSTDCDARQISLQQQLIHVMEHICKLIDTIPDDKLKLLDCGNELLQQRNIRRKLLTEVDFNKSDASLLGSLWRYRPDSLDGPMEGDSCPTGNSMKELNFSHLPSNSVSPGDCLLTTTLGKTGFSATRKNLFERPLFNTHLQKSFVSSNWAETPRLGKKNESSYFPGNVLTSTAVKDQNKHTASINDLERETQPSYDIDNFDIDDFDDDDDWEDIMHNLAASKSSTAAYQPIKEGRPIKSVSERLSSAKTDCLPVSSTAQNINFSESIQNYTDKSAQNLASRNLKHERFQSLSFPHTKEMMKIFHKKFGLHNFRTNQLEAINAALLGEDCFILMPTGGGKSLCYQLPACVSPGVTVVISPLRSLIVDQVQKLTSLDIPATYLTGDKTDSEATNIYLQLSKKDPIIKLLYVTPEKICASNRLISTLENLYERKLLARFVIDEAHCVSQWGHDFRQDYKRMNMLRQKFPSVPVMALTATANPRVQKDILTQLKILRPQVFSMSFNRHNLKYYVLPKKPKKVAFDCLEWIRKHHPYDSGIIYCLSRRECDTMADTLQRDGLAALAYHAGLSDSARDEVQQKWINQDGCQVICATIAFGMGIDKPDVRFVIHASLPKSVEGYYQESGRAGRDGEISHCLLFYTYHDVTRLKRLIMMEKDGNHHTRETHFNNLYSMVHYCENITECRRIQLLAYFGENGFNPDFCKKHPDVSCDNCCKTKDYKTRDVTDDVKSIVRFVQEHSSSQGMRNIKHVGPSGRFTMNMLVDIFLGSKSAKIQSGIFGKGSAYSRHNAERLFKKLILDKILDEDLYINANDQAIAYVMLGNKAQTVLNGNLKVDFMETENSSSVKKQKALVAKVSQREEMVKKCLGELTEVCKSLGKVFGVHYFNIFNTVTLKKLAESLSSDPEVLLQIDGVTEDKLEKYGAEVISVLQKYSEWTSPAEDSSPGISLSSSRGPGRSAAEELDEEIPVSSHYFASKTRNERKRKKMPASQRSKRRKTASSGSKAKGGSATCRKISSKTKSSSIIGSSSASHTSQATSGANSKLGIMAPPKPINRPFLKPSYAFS

B1: RNF111 (Arkadia) (protein, UniProt Q6ZNA4 1-994)
chain: MSQWTPEYNELYTLKVDMKSEIPSDAPKTQESLKGILLHPEPIGAAKSFPAGVEMINSKVGNEFSHLCDDSQKQEKEMNGNQQEQEKSLVVRKKRKSQQAGPSYVQNCVKENQGILGLRQHLGTPSDEDNDSSFSDCLSSPSSSLHFGDSDTVTSDEDKEVSVRHSQTILNAKSRSHSARSHKWPRTETESVSGLLMKRPCLHGSSLRRLPCRKRFVKNNSSQRTQKQKERILMQRKKREVLARRKYALLPSSSSSSENDLSSESSSSSSTEGEEDLFVSASENHQNNPAVPSGSIDEDVVVIEASSTPQVTANEEINVTSTDSEVEIVTVGESYRSRSTLGHSRSHWSQGSSSHASRPQEPRNRSRISTVIQPLRQNAAEVVDLTVDEDEPTVVPTTSARMESQATSASINNSNPSTSEQASDTASAVTSSQPSTVSETSATLTSNSTTGTSIGDDSRRTTSSAVTETGPPAMPRLPSCCPQHSPCGGSSQNHHALGHPHTSCFQQHGHHFQHHHHHHHTPHPAVPVSPSFSDPACPVERPPQVQAPCGANSSSGTSYHEQQALPVDLSNSGIRSHGSGSFHGASAFDPCCPVSSSRAAIFGHQAAAAAPSQPLSSIDGYGSSMVAQPQPQPPPQPSLSSCRHYMPPPYASLTRPLHHQASACPHSHGNPPPQTQPPPQVDYVIPHPVHAFHSQISSHATSHPVAPPPPTHLASTAAPIPQHLPPTHQPISHHIPATAPPAQRLHPHEVMQRMEVQRRRMMQHPTRAHERPPPHPHRMHPNYGHGHHIHVPQTMSSHPRQAPERSAWELGIEAGVTAATYTPGALHPHLAHYHAPPRLHHLQLGALPLMVPDMAGYPHIRYISSGLDGTSFRGPFRGNFEELIHLEERLGNVNRGASQGTIERCTYPHKYKKVTTDWFSQRKLHCKQDGEEGTEEDTEEKCTICLSILEEGEDVRRLPCMHLFHQVCVDQWLITNKKCPICRVDIEAQLPSES

Experiments:
[1] = molecular target: HA-tagged RNF111 SIMs mutant (RNF111^SIM*) (UniProt Q6ZNA4); test: co-IP; Flag/HA beads or antibodies on Protein A/G beads with lysates of 293T or U2OS cells in modified NETN buffer (20 mM Tris-HCl pH 7.6, 95 mM NaCl, 1 mM EDTA, 0.5% Nonidet P-40), 4 °C overnight, blot; Fig. 6j with or without the CK2 inhibitor TBB
[2] = molecular target: HA-ARKL1 SIM mutant (HA-ARKL1^SIM*) (UniProt Q96B23); test: proximity ligation; Duolink PLA on fixed and permeabilised cells (U2OS WT or KO cells complemented with the named constructs; Fig. 4d and 5b in cells expressing GFP-PML)
[3] = molecular target: ARKL1 serine-rich region deletion mutant (ARKL1^∆S) (UniProt Q96B23); test: co-IP; Flag/HA beads or antibodies on Protein A/G beads with lysates of 293T or U2OS cells in modified NETN buffer (20 mM Tris-HCl pH 7.6, 95 mM NaCl, 1 mM EDTA, 0.5% Nonidet P-40), 4 °C overnight, blot; Fig. 6j with or without the CK2 inhibitor TBB

Molecule | binding [1] | binding [2] | binding [3]
Bloom syndrome helicase (BLM) (from UniProt P54132 1-1417) | binds |  | 
B1 |  | binds weakly | binds
